According to PMC13230545:
No constants are given. Whether binding was seen depends on the method and setting. Binding seen in cells or lysates may run through a third protein. A yes stands for co-enrichment or nearness to the bait. Other partners may have been found. Where a sequence is shown, tags or fusion partners need not be part of it.

By UniProt entry, the sequences of proteins in these tests, tags left out.
UniProt O31774: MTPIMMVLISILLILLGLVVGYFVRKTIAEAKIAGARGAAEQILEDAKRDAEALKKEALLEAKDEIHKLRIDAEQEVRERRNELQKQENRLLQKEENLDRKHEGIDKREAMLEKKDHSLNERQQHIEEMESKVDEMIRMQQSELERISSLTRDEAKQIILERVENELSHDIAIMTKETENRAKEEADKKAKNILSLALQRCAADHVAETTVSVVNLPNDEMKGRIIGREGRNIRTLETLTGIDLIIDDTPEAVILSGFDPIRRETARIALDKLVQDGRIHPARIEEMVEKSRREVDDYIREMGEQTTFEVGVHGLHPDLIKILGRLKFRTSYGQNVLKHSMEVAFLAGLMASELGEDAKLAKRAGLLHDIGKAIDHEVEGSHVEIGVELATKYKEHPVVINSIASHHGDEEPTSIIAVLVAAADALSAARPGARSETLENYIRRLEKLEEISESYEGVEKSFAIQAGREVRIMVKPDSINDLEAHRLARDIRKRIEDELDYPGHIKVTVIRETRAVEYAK
UniProt P37869: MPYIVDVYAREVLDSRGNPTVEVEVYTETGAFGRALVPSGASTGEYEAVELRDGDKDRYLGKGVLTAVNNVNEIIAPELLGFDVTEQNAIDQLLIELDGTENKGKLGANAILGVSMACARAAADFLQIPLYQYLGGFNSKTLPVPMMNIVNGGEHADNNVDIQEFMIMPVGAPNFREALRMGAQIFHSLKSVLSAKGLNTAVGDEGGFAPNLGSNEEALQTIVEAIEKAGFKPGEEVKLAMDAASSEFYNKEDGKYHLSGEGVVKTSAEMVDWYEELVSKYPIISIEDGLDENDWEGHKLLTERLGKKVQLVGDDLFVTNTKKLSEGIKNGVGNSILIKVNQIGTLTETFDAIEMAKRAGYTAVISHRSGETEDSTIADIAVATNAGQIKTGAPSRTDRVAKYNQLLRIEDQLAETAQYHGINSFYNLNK

T1: YaaT (RicT) with a C-terminal FLAG tag (B. subtilis) (UniProt P37541)
T1 sequence: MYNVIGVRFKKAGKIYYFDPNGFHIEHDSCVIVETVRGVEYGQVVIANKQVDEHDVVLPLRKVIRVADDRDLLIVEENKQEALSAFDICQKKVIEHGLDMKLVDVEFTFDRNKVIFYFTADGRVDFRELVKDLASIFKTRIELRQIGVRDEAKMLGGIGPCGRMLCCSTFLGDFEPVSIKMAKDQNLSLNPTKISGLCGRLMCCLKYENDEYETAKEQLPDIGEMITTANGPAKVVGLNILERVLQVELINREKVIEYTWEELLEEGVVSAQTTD

B1: YmcA (RicA) (protein, UniProt O31779 1-143)
chain: MTLYSKKDIVQQARNLAKMISETEEVDFFKRAEAQINENDKVSTIVNQIKALQKQAVNLKHYEKHEALKQVEAKIDALQEELEEIPVIQEFRDSQMEVNDLLQLVAHTISNQVTNEIITSTGGDLLKGETGSKVKHSNNSCSL
B2: YlbF (RicF) (protein, UniProt O34412 1-149)
chain: MYATMESVRLQSEAQQLAEMILQSETAENYRNCYKRLQEDEEAGRIIRSFIKIKEQYEDVQRFGKYHPDYREISRKMREIKRELDLNDKVADFKRAENELQSILDEVSVEIGTAVSEHVKVPTGNPYFDGLSSCGGGCGSGGSCGCKVS
B3: PNPase (enzyme, UniProt P50849 1-705)
chain: MGQEKHVFTIDWAGRTLTVETGQLAKQANGAVMIRYGDTAVLSTATASKEPKPLDFFPLTVNYEERLYAVGKIPGGFIKREGRPSEKAVLASRLIDRPIRPLFADGFRNEVQVISIVMSVDQNCSSEMAAMFGSSLALSVSDIPFEGPIAGVTVGRIDDQFIINPTVDQLEKSDINLVVAGTKDAINMVEAGADEVPEEIMLEAIMFGHEEIKRLIAFQEEIVAAVGKEKSEIKLFEIDEELNEKVKALAEEDLLKAIQVHEKHAREDAINEVKNAVVAKFEDEEHDEDTIKQVKQILSKLVKNEVRRLITEEKVRPDGRGVDQIRPLSSEVGLLPRTHGSGLFTRGQTQALSVCTLGALGDVQILDGLGVEESKRFMHHYNFPQFSVGETGPMRGPGRREIGHGALGERALEPVIPSEKDFPYTVRLVSEVLESNGSTSQASICASTLAMMDAGVPIKAPVAGIAMGLVKSGEHYTVLTDIQGMEDALGDMDFKVAGTEKGVTALQMDIKIEGLSREILEEALQQAKKGRMEILNSMLATLSESRKELSRYAPKILTMTINPDKIRDVIGPSGKQINKIIEETGVKIDIEQDGTIFISSTDESGNQKAKKIIEDLVREVEVGQLYLGKVKRIEKFGAFVEIFSGKDGLVHISELALERVGKVEDVVKIGDEILVKVTEIDKQGRVNLSRKAVLREEKEKEEQQS

biological target: T1, YaaT (RicT) with a C-terminal FLAG tag (B. subtilis); test: affinity purification with mass spectrometry; lysate of the in-locus YaaT-FLAG strain (late exponential phase, OD600 ~1) on anti-FLAG M2 affinity gel, 2 h, 4 °C; 20 mM HEPES-KOH pH 7.5, 30 mM NH4Cl, 6 mM Mg-acetate, 0.5 mM TCEP, 200 µM DDM; eluted with 3x FLAG peptide; DIA-MS; three biological replicates

binding, binds:
endonuclease RNase Y (from UniProt O31774 1-520) (enzyme)
enolase (from UniProt P37869 1-430) (enzyme)
RNase J (B. subtilis (endogenous in B. subtilis)) (enzyme)
B1
B2
B3
